Results reported in the supplement of paper PMC8858631.
Structures can show the parent of a compound that is named as a salt. The list shows a part of the results. Cut-off read from the data, not from the text of the source: active = 0.5 or less and inactive = the rest. Many values rest on one well or one pass, so single values are uncertain.

test system: SK-MEL-28; assay: EEF2K protein level normalised to actin (western blot) after treatment (ratio (EEF2K/Actin)); higher = more EEF2K protein remaining (less EEF2K suppression); settings: 5 µM; 24 h

Compound | EEF2K protein level normalised to actin
CC(C)(C)c1nc(-c2cccc(NS(=O)(=O)c3c(F)cccc3F)c2F)c(-c2ccnc(N)n2)s1 [Dabrafenib Mesylate] | inactive: 1.28
Cc1cn(-c2cc(NC(=O)c3ccc(C)c(Nc4nccc(-c5cccnc5)n4)c3)cc(C(F)(F)F)c2)cn1 [Nilotinib (AMN-107)] | inactive: 1.06
C[C@@H]1CCN(C(=O)CC#N)C[C@@H]1N(C)c1ncnc2[nH]ccc12 | inactive: 1.2
CCN1CCN(Cc2ccc(Nc3ncc(F)c(-c4cc(F)c5nc(C)n(C(C)C)c5c4)n3)nc2)CC1 | inactive: 2.99
CCN(CC)CCNC(=O)c1c(C)[nH]c(/C=C2\C(=O)Nc3ccc(F)cc32)c1C [Sunitinib] | inactive: 1.86
CNC(=O)c1ccc(N2C(=S)N(c3cnc(C#N)c(C(F)(F)F)c3)C(=O)C23CCC3)cc1F | inactive: 0.56
Cc1nc(Nc2ncc(C(=O)Nc3c(C)cccc3Cl)s2)cc(N2CCN(CCO)CC2)n1 [Dasatinib Monohydrate] | inactive: 2.3
C=CC(=O)Nc1cc(Nc2nccc(-c3cn(C)c4ccccc34)n2)c(OC)cc1N(C)CCN(C)C [Osimertinib (AZD9291)] | inactive: 1.08
CC(=O)OCC(CCn1cnc2cnc(N)nc21)COC(C)=O [Famciclovir] | inactive: 1.7
NC(=O)NO [Hydroxyurea] | inactive: 0.64
O=NN(CCCl)C(=O)NC1CCCCC1 [Lomustine] | inactive: 0.69
COc1cccc2c1C(=O)c1c(O)c3c(c(O)c1C2=O)C[C@@](O)(C(=O)CO)C[C@@H]3O[C@H]1C[C@H](N)[C@@H](O)[C@H](C)O1 [Epirubicin HCl] | inactive: 0.83
Cc1c(-c2ccc(O)cc2)n(Cc2ccc(OCCN3CCCCCC3)cc2)c2ccc(O)cc12 [Bazedoxifene HCl] | inactive: 3.83
NC(=S)N/N=C/c1ncccc1N [Triapine] | inactive: 0.9
CC[C@@H]1/C=C(\C)C[C@H](C)C[C@H](OC)[C@H]2O[C@@](O)(C(=O)C(=O)N3CCCC[C@H]3C(=O)O[C@H](/C(C)=C/[C@@H]3CC[C@H](Cl)[C@H](OC)C3)[C@H](C)[C@@H](O)CC1=O)[C@H](C)C[C@@H]2OC [Pimecrolimus] | inactive: 0.84
CCNC(=O)[C@@H]1CCCN1C(=O)[C@H](CCCNC(=N)N)NC(=O)[C@H](CC(C)C)NC(=O)[C@@H](CC(C)C)NC(=O)[C@H](Cc1ccc(O)cc1)NC(=O)[C@H](CO)NC(=O)[C@H](Cc1c[nH]c2ccccc12)NC(=O)[C@H](Cc1c[nH]cn1)NC(=O)[C@@H]1CCC(=O)N1 [Leuprolide Acetate] | inactive: 1.75
C=CC[C@@H]1/C=C(\C)C[C@H](C)C[C@H](OC)[C@H]2O[C@@](O)(C(=O)C(=O)N3CCCC[C@H]3C(=O)O[C@H](/C(C)=C/[C@@H]3CC[C@@H](O)[C@H](OC)C3)[C@H](C)[C@@H](O)CC1=O)[C@H](C)C[C@@H]2OC [Tacrolimus (FK506)] | inactive: 0.96
CCCCCCCCCCCCCCCCCCOP(=O)([O-])OC1CC[N+](C)(C)CC1 [Perifosine (KRX-0401)] | inactive: 2.09
COC(=O)C[C@](O)(CCCC(C)(C)O)C(=O)O[C@@H]1C(OC)=C[C@]23CCCN2CCc2cc4c(cc2[C@H]13)OCO4 [Homoharringtonine] | inactive: 4.31
Nc1nc2[nH]cnc2c(=S)[nH]1 [Thioguanine] | active: 0.46
Cc1ccc(NC(=O)c2ccc(CN3CCN(C)CC3)cc2)cc1Nc1nc(-c2cccnc2)cs1 [Masitinib (AB1010)] | inactive: 1.29
CCCCCCNC(=O)n1cc(F)c(=O)[nH]c1=O [Carmofur] | active: 0.48
Cc1c(C(=O)Nc2ccc(N3C[C@@H](C)O[C@@H](C)C3)nc2)cccc1-c1ccc(OC(F)(F)F)cc1 [Sonidegib (Erismodegib, NVP-LDE225)] | inactive: 4.28
O=C(/C=C/c1cccc(S(=O)(=O)Nc2ccccc2)c1)NO [Belinostat (PXD101)] | active: 0.35
CCCCCOC(=O)Nc1nc(=O)n([C@@H]2O[C@H](C)[C@@H](O)[C@H]2O)cc1F [Capecitabine] | inactive: 1.96
C/C=C(/C(=C/C)c1ccc(O)cc1)c1ccc(O)cc1 [Dienestrol] | inactive: 0.52

Two compounds drawn at random from those above, as already listed:
Compound | EEF2K protein level normalised to actin
O=C(/C=C/c1cccc(S(=O)(=O)Nc2ccccc2)c1)NO [Belinostat (PXD101)] | active: 0.35
CC[C@@H]1/C=C(\C)C[C@H](C)C[C@H](OC)[C@H]2O[C@@](O)(C(=O)C(=O)N3CCCC[C@H]3C(=O)O[C@H](/C(C)=C/[C@@H]3CC[C@H](Cl)[C@H](OC)C3)[C@H](C)[C@@H](O)CC1=O)[C@H](C)C[C@@H]2OC [Pimecrolimus] | inactive: 0.84
